Data as given in PubChem BioAssay AID504808 (Drosophila RNAi Screening Center, 2011)
Screen: 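Genes whose loss lifts activity of an E2F-responsive reporter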 (primary screen). Cells: Drosophila S2 cells. Reagents: long dsRNA against Drosophila genes. Detection: 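Firefly luciferase driven by E2F sites, normalised to Renilla luciferase on the same minimal promoter, measured by plate reader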. Scale: E2F firefly: higher = more E2F reporter activity; Renilla normaliser: higher = more normaliser reporter signal. Hit rule: 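Called active if the normalised E2F reporter went up by over 50%; the cutoff is arbitrary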.
The deposit covers about 21,000 reagents; shown is a random part of those that have a named target and a result. Over the whole deposit, 18 (0.084%) were called active. 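Raw counts without plate normalisation, one of two replicates; the ratio scores behind the calls were not deposited.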 Reagents against one gene are numbered here. Names joined by + are all predicted targets of the reagent. Not stated in the record: the amount of reagent, the time to read-out.

target gene | reagent no. | E2F firefly, rep 1 | Renilla normaliser, rep 1 | activity call
Rpn12 (Regulatory particle non-ATPase 12) | 1 | 86830 | 7898 | inactive
Or1a (Odorant receptor 1a) | 1 | 1.20e5 | 5296 | inactive
Shark (SH2 ankyrin repeat kinase) | 1 | 74295 | 2944 | inactive
CG4887 | 1 | 1.75e5 | 6180 | inactive
Cpr72Eb (Cuticular protein 72Eb) | 1 | 1.76e5 | 8683 | inactive
Bfc (Booster for Crq) | 1 | 1.05e5 | 4714 | inactive
bai (baiser) | 1 | 1.09e5 | 6753 | inactive
CG5805 | 1 | 70049 | 3432 | inactive
uex (unextended) | 1 | 84472 | 3030 | inactive
uex (unextended) | 2 | 77576 | 3782 | inactive
ND-75 (NADH dehydrogenase (ubiquinone) 75 kDa subunit) | 1 | 1.14e5 | 4985 | inactive
CG7149 | 1 | 95109 | 4351 | inactive
Vps45 (Vacuolar protein sorting 45) | 1 | 1.54e5 | 6565 | inactive
CG42812 + CG42811 | 1 | 1.00e5 | 5184 | inactive
CG42812 + CG42811 | 2 | 99866 | 5906 | inactive
CG42561 | 1 | 1.69e5 | 6105 | inactive
CG13643 | 1 | 1.07e5 | 5562 | inactive
CG13643 | 2 | 1.10e5 | 6029 | inactive
asRNA:CR33945 (antisense RNA:CR33945) | 1 | 78133 | 2624 | inactive
LS2 (Large Subunit 2) | 1 | 86134 | 4262 | inactive
CG18467 | 1 | 1.65e5 | 4629 | inactive
Sol1 | 1 | 1.57e5 | 7094 | inactive
Sol1 | 2 | 1.48e5 | 6664 | inactive
Sol1 | 3 | 1.54e5 | 6853 | inactive
nAChRalpha6 (nicotinic Acetylcholine Receptor alpha6) | 1 | 1.46e5 | 6162 | inactive
nAChRalpha6 (nicotinic Acetylcholine Receptor alpha6) | 2 | 81556 | 4159 | inactive
CG1116 | 1 | 1.36e5 | 5803 | inactive
E23 (Early gene at 23) | 1 | 1.20e5 | 4213 | inactive
E23 (Early gene at 23) | 2 | 1.32e5 | 4985 | inactive
drm (drumstick) | 1 | 1.34e5 | 5260 | inactive
SmydA-4 (SET and MYND domain containing, arthropod-specific, member 4) | 1 | 1.34e5 | 6810 | inactive
Lcp2 (Larval cuticle protein 2) | 1 | 1.43e5 | 5866 | inactive
CG2701 | 1 | 1864 | 888 | inactive
CG15464 (retired record) | 1 | 1.02e5 | 5057 | inactive
CG18278 + CG30059 | 1 | 1.28e5 | 4661 | inactive
CG5849 | 1 | 1.36e5 | 7551 | inactive
loopin-1 | 1 | 72353 | 4018 | inactive
CG14126 (retired record) | 1 | 1.10e5 | 5183 | inactive
CG6700 | 1 | 78100 | 3111 | inactive
Best1 (Bestrophin 1) | 1 | 1.52e5 | 6645 | inactive
CG6761 | 1 | 71983 | 3200 | inactive
Theg (Testicular haploid expressed gene) | 1 | 69363 | 5327 | inactive
Oatp26F (Organic anion transporting polypeptide 26F) | 1 | 1.49e5 | 4715 | inactive
Oatp26F (Organic anion transporting polypeptide 26F) | 2 | 1.71e5 | 5947 | inactive
Oatp26F (Organic anion transporting polypeptide 26F) | 3 | 1.62e5 | 5299 | inactive
CG7945 | 1 | 70388 | 3376 | inactive
CG34029 | 1 | 1.29e5 | 4226 | inactive
Slh (SLY-1 homologous) | 1 | 1.50e5 | 6229 | inactive
Ski6 | 1 | 1.10e5 | 4056 | inactive
Qsox4 (Quiescin sulfhydryl oxidase 4) | 1 | 80403 | 3644 | inactive
Wdr62 (WD repeat domain 62) | 1 | 1.34e5 | 5723 | inactive
Wdr62 (WD repeat domain 62) | 2 | 1.35e5 | 5482 | inactive
Wdr62 (WD repeat domain 62) | 3 | 68610 | 2932 | inactive
CG17839 | 1 | 1.65e5 | 7565 | inactive
CG17839 | 2 | 1.92e5 | 9446 | inactive
BigH1 (Histone H1 variant BigH1) | 1 | 77484 | 3973 | inactive
P32 | 1 | 74653 | 3598 | inactive
sno (strawberry notch) | 1 | 8702 | 784 | inactive
CG6262 | 1 | 1.10e5 | 4432 | inactive
FER (FER tyrosine kinase) | 1 | 43430 | 2882 | inactive
FER (FER tyrosine kinase) | 2 | 1.43e5 | 5407 | inactive
CG17134 | 1 | 1.63e5 | 5477 | inactive
Gr98a (Gustatory receptor 98a) | 1 | 49504 | 3622 | inactive
CG10102 (retired record) | 1 | 91347 | 4151 | inactive
ttv (tout-velu) | 1 | 2696 | 203 | inactive
CG10802 | 1 | 1762 | 864 | inactive
RhoGEF64C (Rho guanine nucleotide exchange factor at 64C) | 1 | 70057 | 3503 | inactive
RhoGEF64C (Rho guanine nucleotide exchange factor at 64C) | 2 | 99075 | 4075 | inactive
CG1695 | 1 | 1.35e5 | 6510 | inactive
dpr19 (defective proboscis extension response 19) | 1 | 1.58e5 | 4849 | inactive
CG10237 | 1 | 93378 | 3398 | inactive
yl (yolkless) | 1 | 2.30e5 | 6082 | inactive
Daao2 (D-amino acid oxidase 2) | 1 | 1.02e5 | 4326 | inactive
CG17377 | 1 | 1.37e5 | 5645 | inactive
CG17377 | 2 | 93393 | 3575 | inactive
tty (tweety) | 1 | 1.62e5 | 4956 | inactive
CG15578 | 1 | 1.11e5 | 5006 | inactive
Sms (Spermine synthase) | 1 | 1.24e5 | 7504 | inactive
ric8a | 1 | 7434 | 740 | inactive
CG1316 | 1 | 99406 | 3441 | inactive
Cpr47Ea (Cuticular protein 47Ea) | 1 | 94049 | 4077 | inactive
CG2854 | 1 | 1.16e5 | 4858 | inactive
mbt (mushroom bodies tiny) | 1 | 1.39e5 | 5306 | inactive
Obp18a (Odorant-binding protein 18a) | 1 | 1.17e5 | 6265 | inactive
